Assay results as given in article doi:10.1101/2024.09.09.611999.
These are yes or no findings as the source states them, for the method shown. In cells and extracts the contact can be indirect. Some results given as binding are weak or reduced against the parent protein; the word gives no strength.

Amino acid sequences for entries named in this document (tags omitted).
UniProt Q13315: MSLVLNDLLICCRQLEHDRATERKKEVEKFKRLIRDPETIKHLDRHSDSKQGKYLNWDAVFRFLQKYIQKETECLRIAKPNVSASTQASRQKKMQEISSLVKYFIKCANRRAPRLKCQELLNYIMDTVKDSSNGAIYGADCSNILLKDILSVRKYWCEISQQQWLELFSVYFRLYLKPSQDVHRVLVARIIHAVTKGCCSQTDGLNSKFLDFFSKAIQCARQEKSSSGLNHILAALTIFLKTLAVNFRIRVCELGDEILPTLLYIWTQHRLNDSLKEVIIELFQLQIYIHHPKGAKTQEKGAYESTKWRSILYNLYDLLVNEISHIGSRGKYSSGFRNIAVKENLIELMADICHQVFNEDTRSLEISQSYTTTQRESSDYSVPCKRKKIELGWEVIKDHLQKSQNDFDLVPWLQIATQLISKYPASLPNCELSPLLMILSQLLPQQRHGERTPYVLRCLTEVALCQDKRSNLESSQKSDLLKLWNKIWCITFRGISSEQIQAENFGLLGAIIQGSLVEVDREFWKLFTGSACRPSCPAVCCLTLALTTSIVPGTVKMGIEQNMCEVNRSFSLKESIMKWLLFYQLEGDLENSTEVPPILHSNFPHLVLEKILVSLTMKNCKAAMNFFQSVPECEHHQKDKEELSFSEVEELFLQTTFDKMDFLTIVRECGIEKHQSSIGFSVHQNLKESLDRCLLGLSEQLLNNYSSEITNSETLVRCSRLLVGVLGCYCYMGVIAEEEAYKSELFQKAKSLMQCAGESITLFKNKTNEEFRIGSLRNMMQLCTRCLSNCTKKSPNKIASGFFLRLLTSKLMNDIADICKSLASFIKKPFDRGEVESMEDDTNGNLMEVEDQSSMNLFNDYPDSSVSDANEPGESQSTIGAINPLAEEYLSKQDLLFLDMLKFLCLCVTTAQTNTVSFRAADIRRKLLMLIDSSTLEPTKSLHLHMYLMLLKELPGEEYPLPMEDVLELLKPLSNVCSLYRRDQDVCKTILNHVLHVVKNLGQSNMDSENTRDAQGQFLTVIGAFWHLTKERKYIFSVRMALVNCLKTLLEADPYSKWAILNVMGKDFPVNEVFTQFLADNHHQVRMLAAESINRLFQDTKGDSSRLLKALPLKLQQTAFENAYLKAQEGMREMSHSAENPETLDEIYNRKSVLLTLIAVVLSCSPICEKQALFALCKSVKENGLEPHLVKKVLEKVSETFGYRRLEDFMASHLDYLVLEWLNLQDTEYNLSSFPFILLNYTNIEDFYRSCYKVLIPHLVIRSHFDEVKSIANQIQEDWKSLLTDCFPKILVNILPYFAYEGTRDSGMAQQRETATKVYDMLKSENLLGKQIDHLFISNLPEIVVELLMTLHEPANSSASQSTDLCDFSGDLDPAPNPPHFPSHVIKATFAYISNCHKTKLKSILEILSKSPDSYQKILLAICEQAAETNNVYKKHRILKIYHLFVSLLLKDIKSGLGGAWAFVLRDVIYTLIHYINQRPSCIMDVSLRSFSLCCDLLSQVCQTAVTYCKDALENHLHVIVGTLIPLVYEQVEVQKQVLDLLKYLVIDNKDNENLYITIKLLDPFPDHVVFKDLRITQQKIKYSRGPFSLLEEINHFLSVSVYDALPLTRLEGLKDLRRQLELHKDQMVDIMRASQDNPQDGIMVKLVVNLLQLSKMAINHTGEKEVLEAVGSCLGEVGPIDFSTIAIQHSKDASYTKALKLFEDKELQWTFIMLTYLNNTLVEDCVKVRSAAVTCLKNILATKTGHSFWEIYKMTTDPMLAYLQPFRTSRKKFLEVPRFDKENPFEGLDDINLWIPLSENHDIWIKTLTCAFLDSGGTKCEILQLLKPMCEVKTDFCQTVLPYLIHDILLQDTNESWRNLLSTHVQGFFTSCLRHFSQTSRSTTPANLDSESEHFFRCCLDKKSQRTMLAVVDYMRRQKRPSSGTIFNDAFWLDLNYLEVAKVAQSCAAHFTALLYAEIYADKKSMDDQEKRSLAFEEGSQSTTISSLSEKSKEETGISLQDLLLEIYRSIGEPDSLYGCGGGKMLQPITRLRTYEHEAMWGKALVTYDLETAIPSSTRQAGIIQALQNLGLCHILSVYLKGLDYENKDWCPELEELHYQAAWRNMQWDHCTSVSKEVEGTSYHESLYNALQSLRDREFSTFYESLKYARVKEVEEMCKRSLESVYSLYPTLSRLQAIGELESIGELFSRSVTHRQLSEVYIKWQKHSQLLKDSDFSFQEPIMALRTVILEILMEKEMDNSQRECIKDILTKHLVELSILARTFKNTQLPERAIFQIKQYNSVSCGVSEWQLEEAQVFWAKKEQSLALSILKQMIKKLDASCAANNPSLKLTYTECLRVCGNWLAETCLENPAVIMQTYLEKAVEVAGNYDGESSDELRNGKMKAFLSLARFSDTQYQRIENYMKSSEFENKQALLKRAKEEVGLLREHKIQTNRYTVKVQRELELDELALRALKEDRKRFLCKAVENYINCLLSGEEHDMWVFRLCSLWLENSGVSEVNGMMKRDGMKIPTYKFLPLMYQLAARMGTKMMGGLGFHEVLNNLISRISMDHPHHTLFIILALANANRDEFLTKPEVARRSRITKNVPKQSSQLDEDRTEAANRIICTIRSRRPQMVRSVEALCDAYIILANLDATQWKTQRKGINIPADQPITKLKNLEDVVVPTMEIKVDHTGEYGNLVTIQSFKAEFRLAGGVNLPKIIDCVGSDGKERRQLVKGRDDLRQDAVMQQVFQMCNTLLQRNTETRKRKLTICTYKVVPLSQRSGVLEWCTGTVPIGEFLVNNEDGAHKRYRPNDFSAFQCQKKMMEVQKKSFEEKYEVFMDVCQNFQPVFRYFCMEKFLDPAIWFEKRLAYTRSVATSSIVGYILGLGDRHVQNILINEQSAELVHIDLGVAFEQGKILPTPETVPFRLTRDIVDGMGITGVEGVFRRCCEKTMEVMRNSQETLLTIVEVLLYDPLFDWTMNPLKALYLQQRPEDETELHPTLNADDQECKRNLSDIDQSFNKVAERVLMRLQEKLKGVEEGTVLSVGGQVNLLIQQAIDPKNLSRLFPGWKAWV
UniProt P11142: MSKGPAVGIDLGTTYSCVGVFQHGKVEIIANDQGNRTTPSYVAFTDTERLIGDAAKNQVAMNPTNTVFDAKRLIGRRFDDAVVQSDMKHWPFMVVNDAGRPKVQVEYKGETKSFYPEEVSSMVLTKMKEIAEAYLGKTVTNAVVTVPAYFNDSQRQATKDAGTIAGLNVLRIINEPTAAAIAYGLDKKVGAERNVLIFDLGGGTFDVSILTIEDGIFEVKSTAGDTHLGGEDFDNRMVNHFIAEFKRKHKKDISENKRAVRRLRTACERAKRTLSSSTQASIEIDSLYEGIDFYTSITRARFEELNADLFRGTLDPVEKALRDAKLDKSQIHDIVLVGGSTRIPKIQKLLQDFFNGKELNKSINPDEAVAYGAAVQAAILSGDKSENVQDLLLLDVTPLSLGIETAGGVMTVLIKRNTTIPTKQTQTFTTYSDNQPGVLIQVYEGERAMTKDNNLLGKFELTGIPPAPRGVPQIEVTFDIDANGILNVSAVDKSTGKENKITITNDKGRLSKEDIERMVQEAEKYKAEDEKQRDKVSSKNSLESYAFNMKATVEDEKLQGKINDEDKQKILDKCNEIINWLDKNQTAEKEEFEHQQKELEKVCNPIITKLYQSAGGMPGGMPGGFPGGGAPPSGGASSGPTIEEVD
UniProt P06748: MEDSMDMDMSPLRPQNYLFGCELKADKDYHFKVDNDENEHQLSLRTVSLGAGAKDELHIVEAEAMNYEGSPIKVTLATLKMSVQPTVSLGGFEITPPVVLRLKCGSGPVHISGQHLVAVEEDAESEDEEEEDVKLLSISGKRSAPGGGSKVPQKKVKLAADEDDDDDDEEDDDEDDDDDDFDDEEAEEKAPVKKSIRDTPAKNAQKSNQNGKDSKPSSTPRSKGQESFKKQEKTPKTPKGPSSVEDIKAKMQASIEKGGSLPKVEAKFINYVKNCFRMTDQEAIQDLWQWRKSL

Target: phosphorylated ATM (human (endogenous in PSC27)) (UniProt Q13315)
Assay: co-IP

Row | binding | Substance
1 | binds | HSPA8 (from UniProt P11142 1-646)
2 | binds | NPM1 (from UniProt P06748 1-294)
